Data from PubChem BioAssay AID1347076 (National Center for Advancing Translational Sciences (NCATS), 2019).
In all, about 400,000 compounds went through this assay and about 13,000 (3.2%) were called active. The inconclusive results got no clear call from the source; some entries with a clear call stand among them for comparison. Calls follow the shape of the dose curve; as a rule, active = well fitted cell-killing curve with a large enough effect; inconclusive = small, poorly fitted or top-dose-only effect, or effect the other way; inactive = flat fitted curve, though single readings scatter. Potencies beside an inconclusive call are fits to weak or partial responses and may not hold up.

Experiment: qHTS assay for MDR1-selective chemotherapeutics: Primary screen using the drug-selected MDR subline cells KB-V1; also: nearly all actives have a fitted effect of over 60% in size
Settings: KB-V1 MDR cells viability, CellTiter-Glo, 72 h; series mostly up to 46.1 µM
Outline: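 Potencies derive from concentration-effect curves fitted to normalized luminescence (CellTiter-Glo) of KB-V1 cells treated for 72 h at 37 degrees C in phenol-red-free DMEM containing 10% FBS.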
Potency is read from the fitted curve at half-maximal effect.

**Q.** Which Potency does the source give for `Cc1nc2ccccc2n1CC(=O)N/N=C\C=C\c1ccccc1` here?
**A.** The Potency was active: 20.6 µM.

**Q.** For `O=C1OC(/C(=C\NCc2ccccc2)[N+](=O)[O-])c2ccccc21` (centres undefined), which Potency is on record?
**A.** Its Potency is “inactive”.

**Q.** For `C#CCO[C@@H]1C[C@H](n2cnc3c(=O)[nH]c(NC(=O)C(C)C)nc32)O[C@@H]1CO`, which Potency is on record?
**A.** Its Potency is inconclusive: 0.0092 µM [rising, full curve, poor fit].

**Q.** With `CC(=O)c1c(C)[nH]c(C(=O)OCC(=O)NNC(=O)c2ccc([N+](=O)[O-])cc2)c1C` as the compound, how does the Potency read?
**A.** Its Potency is inconclusive: 20.6 µM [rising, single point].

**Q.** For `CCS(=O)(=O)N1CCN=C1SCc1ccccc1`, which Potency is on record?
**A.** Its Potency is “inactive”.

**Q.** With `COc1cccc2cc(-c3nnc(SCC(=O)Nc4nc(C)cs4)n3C)oc12` as the compound, how does the Potency read?
**A.** Its Potency is inconclusive: 23.1 µM [cytotoxic, partial curve].

**Q.** For `O=C(CSc1nnc(-c2cccc(F)c2)c(-c2cccc(F)c2)n1)NC1CCCCC1`, which Potency is on record?
**A.** The Potency was “inactive”.

**Q.** Which Potency does the source give for `COc1cccc2c(=O)c3c(cnn3C)n(C)c12` here?
**A.** Its Potency is active: 20.6 µM.

**Q.** With `CC1=C(C(=O)N2CCOCC2)CC(CC(=O)NCCc2ccccn2)C(=O)N1CCCN1CCCC1=O` (centres undefined) as the compound, how does the Potency read?
**A.** The Potency was “inactive”.

**Q.** Which Potency does the source give for `O=c1[nH]cnc2c1c(-c1ccccc1)cn2-c1ccccc1` here?
**A.** The Potency was inconclusive: 8.2 µM [rising, partial curve, poor fit].

**Q.** With `COc1ccc(-n2nc3c(N4CCC(C(=O)NCCc5ccccc5)CC4)nnc(C)c3c2C)cc1` as the compound, how does the Potency read?
**A.** Its Potency is inconclusive: 23.1 µM [rising, single point].

**Q.** With `CCn1c(-c2cc3ccccc3cc2O)n[nH]c1=S` as the compound, how does the Potency read?
**A.** The Potency was active: 20.6 µM.

**Q.** Which Potency does the source give for `CC1CN(C(=O)COC(=O)c2ccc(S(=O)(=O)N(C)C)cc2)CC(C)O1` (centres undefined) here?
**A.** The Potency was inconclusive: 23.1 µM [rising, single point].

**Q.** Which Potency does the source give for `CC(C)OC(=O)c1ccc2nc3ccccc3nc2c1` here?
**A.** The Potency was inconclusive: 29.1 µM [cytotoxic, single point].

**Q.** Which Potency does the source give for `CCOC(=O)c1c(C)[nH]c(C(=O)C(C)OC(=O)c2cnc(C)cn2)c1C` (centres undefined) here?
**A.** The Potency was inconclusive: 0.731 µM [cytotoxic, full curve, poor fit].

**Q.** Which Potency does the source give for `CCc1ccccc1NC(=S)NC1CC2CCCC(C1)N2Cc1cccs1` (centres undefined) here?
**A.** Its Potency is inconclusive: 7.31 µM [cytotoxic, partial curve].

**Q.** With `COc1cc(NS(=O)(=O)c2ccccc2)ccc1-n1nc(C)cc1C` as the compound, how does the Potency read?
**A.** The Potency was inconclusive: 20.6 µM [cytotoxic, single point].

**Q.** For `O=C(Nc1ccc(NS(=O)(=O)c2ccc([N+](=O)[O-])cc2)cc1)c1ccco1`, which Potency is on record?
**A.** The Potency was inconclusive: 20.6 µM [cytotoxic, single point].

**Q.** With `Cc1cc(C)nc(SCNC(=O)c2ccc(F)cc2)n1` as the compound, how does the Potency read?
**A.** The Potency was inconclusive: 14.6 µM [rising, single point].
